## Primary screen of a compound library

By UniProt entry, the sequences of proteins in these tests, tags left out.
UniProt E9BF75, entry or part of it: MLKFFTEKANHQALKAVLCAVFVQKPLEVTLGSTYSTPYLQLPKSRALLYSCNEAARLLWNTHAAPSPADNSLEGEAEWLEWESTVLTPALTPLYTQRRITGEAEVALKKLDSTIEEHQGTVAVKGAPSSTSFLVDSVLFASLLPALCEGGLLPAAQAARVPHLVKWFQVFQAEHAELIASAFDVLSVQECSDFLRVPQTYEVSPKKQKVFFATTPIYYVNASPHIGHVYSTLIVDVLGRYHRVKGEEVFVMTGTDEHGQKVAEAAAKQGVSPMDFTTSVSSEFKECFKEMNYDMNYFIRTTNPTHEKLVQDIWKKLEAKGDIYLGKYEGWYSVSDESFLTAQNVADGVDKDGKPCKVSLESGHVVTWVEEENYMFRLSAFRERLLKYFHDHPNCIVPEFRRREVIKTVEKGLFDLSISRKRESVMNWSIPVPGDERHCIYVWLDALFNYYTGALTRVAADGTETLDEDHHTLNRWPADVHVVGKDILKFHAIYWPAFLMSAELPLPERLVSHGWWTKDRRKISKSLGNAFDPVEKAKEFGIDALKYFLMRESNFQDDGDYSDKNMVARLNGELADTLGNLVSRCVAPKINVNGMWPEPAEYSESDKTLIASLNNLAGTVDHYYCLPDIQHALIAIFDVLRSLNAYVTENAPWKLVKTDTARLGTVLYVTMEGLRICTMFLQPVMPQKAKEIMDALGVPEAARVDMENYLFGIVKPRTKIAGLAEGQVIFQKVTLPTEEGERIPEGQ

All values are in %. How 0% and 100% were set is not recorded. Most values in the screen are low, and negative values occur. This is an unselected part of the compounds tested.

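Methionyl-tRNA synthetase (putative), Leishmania donovani (UniProt E9BF75). Primary screen of methionyl-tRNA synthetase; the read-out is not stated. The test concentration is not given. Values are per cent inhibition. Size under these conditions: about 68,000 compounds, about 24 of them at 50% or above in at least one test.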

* CCn1cnnc1C1CCN(C(=O)c2cccc(-n3cccc3)c2)CC1 : 18.03%
* O=C(NCc1ccnc(OCC(F)(F)F)c1)NCC1CCOC1 (centres unmarked) : 6.469%
* O=C(c1n[nH]c2c1CCC2)N1CCCC1c1nc(-c2ccccc2)no1 (centres unmarked) : 0%
* CC(C)c1cc(NCC2(Cn3cccn3)CC2)nc(N)n1 : 24.84%
* Cc1cc(N2CCC3(CC2)C(C(=O)O)CC(=O)N3C)nc2ccccc12 (centres unmarked) : -2.046%
* COc1cnc(CSc2nnc(C)s2)cc1OCC(=O)NC1CCCC1 : 16.33%
* CC(c1nc(-c2cccnc2)no1)N(C)CCCOc1ccccc1 (centres unmarked) : 8.659%
* COc1cccc(CCC(=O)Nc2ccn(C)n2)c1OC : 10.3%
* CC(=O)NCCNC(=O)C1(N2CCCCC2)Cc2ccccc2C1 : 11.2%
* COC(=O)c1cnc(/C=C/c2ccc(C(=O)O)cc2)s1 : 6.183%
* CCOCC(=O)N1CCC(c2nccn2C)CC1 : -3.686%
* CCCN1C(=O)[C@@H]2[C@@H](CCN2C(=O)COC)N(Cc2cccs2)C1=O : -3.729%
* Brc1ccc(C2(CNCc3cc[nH]c3)CCOCC2)cc1 : 17.54%
* Cc1nn(C)c(C)c1-c1ccc(=O)n(C(C)C(=O)NC(C)(C)C)n1 (centres unmarked) : 15.94%
* O=C(c1ccc(Cl)cc1)N1CCC2(C1)C(=O)Nc1ccccc12 (centres unmarked) : 14.29%
* CN1CCCC(N2CCN(c3cc(C(F)(F)F)ccn3)CC2)C1 (centres unmarked) : 7.796%
* CCOC1CCN(C(=O)c2ccc(-n3ncc(C#N)c3N)cc2)CC1 : 20.21%
* O=C1CC(c2ccccc2)c2sc(C(=O)O)c(-c3ccccc3)c2N1 (centres unmarked) : 16.21%
* COc1cccc(NC(=O)N(CCC(F)(F)F)C[C@H](O)CO)c1 : 3.039%
* CCN(C)CC1CCN(c2ncc(Br)cn2)C1 (centres unmarked) : 19.29%
* COc1cccc(-n2nnc(C(=O)N3CCN(C)CC3C)c2C)c1 (centres unmarked) : 6.748%
* Cn1ccnc1CNC1CCCOc2c1ccc1ccccc21 (centres unmarked) : 8.467%
* O=S(=O)(CC1CCCN1S(=O)(=O)c1cccnc1)c1ccccc1 (centres unmarked) : 17.07%
* Cn1cc(N2CC3(COCCN(Cc4nccs4)C3)OCC2=O)cn1 (centres unmarked) : 5.229%
* CC(C)(C)Oc1ccc(CN)c(C(F)(F)F)c1 : 7.311%
* NC(=O)C(NC(=O)CCc1ccc(Cl)s1)c1ccccc1 (centres unmarked) : 13.17%
* O=C(NCC1OCCc2cn(CC3CCOCC3)nc21)c1ccsc1 (centres unmarked) : 7.801%
* COc1ccccc1C(=O)N1CC(Cc2nccc3ccn(C)c23)C1 : 20.21%
* O[C@H]1[C@H](NCCc2ccccn2)c2ccccc2C12CCNCC2 : -4.811%
* CSc1cccc(CN2CCC(CCC(=O)Nc3ccccc3)CC2)c1 : 11.5%

The last 2 entries again:

Compound,Inhibition
O[C@H]1[C@H](NCCc2ccccn2)c2ccccc2C12CCNCC2,-4.811%
CSc1cccc(CN2CCC(CCC(=O)Nc3ccccc3)CC2)c1,11.5%

Source: ChEMBL document CHEMBL3988442, “University of Dundee, Small-Polar-MMV Screening Library” (2021).